Measured values published in publication PMC7956269.

B1: Esyt2 (protein, UniProt A0FGR8 1-921)
chain: MTANRDAALSSHRHPGCAQRPRTPTFASSSQRRSAFGFDDGNFPGLGERSHAPGSRLGARRRAKTARGLRGHRQRGAGAGLSRPGSARAPSPPRPGGPENPGGVLSVELPGLLAQLARSFALLLPVYALGYLGLSFSWVLLALALLAWCRRSRGLKALRLCRALALLEDEERVVRLGVRACDLPAWVHFPDTERAEWLNKTVKHMWPFICQFIEKLFRETIEPAVRGANTHLSTFSFTKVDVGQQPLRINGVKVYTENVDKRQIILDLQISFVGNCEIDLEIKRYFCRAGVKSIQIHGTMRVILEPLIGDMPLVGALSIFFLRKPLLEINWTGLTNLLDVPGLNGLSDTIILDIISNYLVLPNRITVPLVSEVQIAQLRFPVPKGVLRIHFIEAQDLQGKDTYLKGLVKGKSDPYGIIRVGNQIFQSRVIKENLSPKWNEVYEALVYEHPGQELEIELFDEDPDKDDFLGSLMIDLIEVEKERLLDEWFTLDEVPKGKLHLRLEWLTLMPNASNLDKVLTDIKADKDQANDGLSSALLILYLDSARNLPSGKKISSNPNPVVQMSVGHKAQESKIRYKTNEPVWEENFTFFIHNPKRQDLEVEVRDEQHQCSLGNLKVPLSQLLTSEDMTVSQRFQLSNSGPNSTIKMKIALRVLHLEKRERPPDHQHSAQVKRPSVSKEGRKTSIKSHMSGSPGPGGSNTAPSTPVIGGSDKPGMEEKAQPPEAGPQGLHDLGRSSSSLLASPGHISVKEPTPSIASDISLPIATQELRQRLRQLENGTTLGQSPLGQIQLTIRHSSQRNKLIVVVHACRNLIAFSEDGSDPYVRMYLLPDKRRSGRRKTHVSKKTLNPVFDQSFDFSVSLPEVQRRTLDVAVKNSGGFLSKDKGLLGKVLVALASEELAKGWTQWYDLTEDGTRPQAMT
B2: Nup93 (protein, UniProt Q8N1F7 1-819)
chain: MDTEGFGELLQQAEQLAAETEGISELPHVERNLQEIQQAGERLRSRTLTRTSQETADVKASVLLGSRGLDISHISQRLESLSAATTFEPLEPVKDTDIQGFLKNEKDNALLSAIEESRKRTFGMAEEYHRESMLVEWEQVKQRILHTLLASGEDALDFTQESEPSYISDVGPPGRSSLDNIEMAYARQIYIYNEKIVNGHLQPNLVDLCASVAELDDKSISDMWTMVKQMTDVLLTPATDALKNRSSVEVRMEFVRQALAYLEQSYKNYTLVTVFGNLHQAQLGGVPGTYQLVRSFLNIKLPAPLPGLQDGEVEGHPVWALIYYCMRCGDLLAASQVVNRAQHQLGEFKTWFQEYMNSKDRRLSPATENKLRLHYRRALRNNTDPYKRAVYCIIGRCDVTDNQSEVADKTEDYLWLKLNQVCFDDDGTSSPQDRLTLSQFQKQLLEDYGESHFTVNQQPFLYFQVLFLTAQFEAAVAFLFRMERLRCHAVHVALVLFELKLLLKSSGQSAQLLSHEPGDPPCLRRLNFVRLLMLYTRKFESTDPREALQYFYFLRDEKDSQGENMFLRCVSELVIESREFDMILGKLENDGSRKPGVIDKFTSDTKPIINKVASVAENKGLFEEAAKLYDLAKNADKVLELMNKLLSPVVPQISAPQSNKERLKNMALSIAERYRAQGISANKFVDSTFYLLLDLITFFDEYHSGHIDRAFDIIERLKLVPLNQESVEERVAAFRNFSDEIRHNLSEVLLATMNILFTQFKRLKGTSPSSSSRPQRVIEDRDSQLRSQARTLITFAGMIPYRTSGDTNARLVQMEVLMN
B3: Pogz (protein, UniProt Q7Z3K3 1-1410)
chain: MADTDLFMECEEEELEPWQKISDVIEDSVVEDYNSVDKTTTVSVSQQPVSAPVPIAAHASVAGHLSTSTTVSSSGAQNSDSTKKTLVTLIANNNAGNPLVQQGGQPLILTQNPAPGLGTMVTQPVLRPVQVMQNANHVTSSPVASQPIFITTQGFPVRNVRPVQNAMNQVGIVLNVQQGQTVRPITLVPAPGTQFVKPTVGVPQVFSQMTPVRPGSTMPVRPTTNTFTTVIPATLTIRSTVPQSQSQQTKSTPSTSTTPTATQPTSLGQLAVQSPGQSNQTTNPKLAPSFPSPPAVSIASFVTVKRPGVTGENSNEVAKLVNTLNTIPSLGQSPGPVVVSNNSSAHGSQRTSGPESSMKVTSSIPVFDLQDGGRKICPRCNAQFRVTEALRGHMCYCCPEMVEYQKKGKSLDSEPSVPSAAKPPSPEKTAPVASTPSSTPIPALSPPTKVPEPNENVGDAVQTKLIMLVDDFYYGRDGGKVAQLTNFPKVATSFRCPHCTKRLKNNIRFMNHMKHHVELDQQNGEVDGHTICQHCYRQFSTPFQLQCHLENVHSPYESTTKCKICEWAFESEPLFLQHMKDTHKPGEMPYVCQVCQYRSSLYSEVDVHFRMIHEDTRHLLCPYCLKVFKNGNAFQQHYMRHQKRNVYHCNKCRLQFLFAKDKIEHKLQHHKTFRKPKQLEGLKPGTKVTIRASRGQPRTVPVSSNDTPPSALQEAAPLTSSMDPLPVFLYPPVQRSIQKRAVRKMSVMGRQTCLECSFEIPDFPNHFPTYVHCSLCRYSTCCSRAYANHMINNHVPRKSPKYLALFKNSVSGIKLACTSCTFVTSVGDAMAKHLVFNPSHRSSSILPRGLTWIAHSRHGQTRDRVHDRNVKNMYPPPSFPTNKAATVKSAGATPAEPEELLTPLAPALPSPASTATPPPTPTHPQALALPPLATEGAECLNVDDQDEGSPVTQEPELASGGGGSGGVGKKEQLSVKKLRVVLFALCCNTEQAAEHFRNPQRRIRRWLRRFQASQGENLEGKYLSFEAEEKLAEWVLTQREQQLPVNEETLFQKATKIGRSLEGGFKISYEWAVRFMLRHHLTPHARRAVAHTLPKDVAENAGLFIDFVQRQIHNQDLPLSMIVAIDEISLFLDTEVLSSDDRKENALQTVGTGEPWCDVVLAILADGTVLPTLVFYRGQMDQPANMPDSILLEAKESGYSDDEIMELWSTRVWQKHTACQRSKGMLVMDCHRTHLSEEVLAMLSASSTLPAVVPAGCSSKIQPLDVCIKRTVKNFLHKKWKEQAREMADTACDSDVLLQLVLVWLGEVLGVIGDCPELVQRSFLVASVLPGPDGNINSPTRNADMQEELIASLEEQLKLSGEHSESSTPRPRSSPEETIEPESLHQLFEGESETESFYGFEEADLDLMEI
B4: Nol9 (protein, UniProt Q5SY16 1-702)
chain: MADSGLLLKRGSCRSTWLRVRKARPQLILSRRPRRRLGSLRWCGRRRLRWRLLQAQASGVDWREGARQVSRAAAARRPNTATPSPIPSPTPASEPESEPELESASSCHRPLLIPPVRPVGPGRALLLLPVEQGFTFSGICRVTCLYGQVQVFGFTISQGQPAQDIFSVYTHSCLSIHALHYSQPEKSKKELKREARNLLKSHLNLDDRRWSMQNFSPQCSIVLLEHLKTATVNFITSYPGSSYIFVQESPTPQIKPEYLALRSVGIRREKKRKGLQLTESTLSALEELVNVSCEEVDGCPVILVCGSQDVGKSTFNRYLINHLLNSLPCVDYLECDLGQTEFTPPGCISLLNITEPVLGPPFTHLRTPQKMVYYGKPSCKNNYENYIDIVKYVFSAYKRESPLIVNTMGWVSDQGLLLLIDLIRLLSPSHVVQFRSDHSKYMPDLTPQYVDDMDGLYTKSKTKMRNRRFRLAAFADALEFADEEKESPVEFTGHKLIGVYTDFAFRITPRNRESHNKILRDLSILSYLSQLQPPMPKPLSPLHSLTPYQVPFNAVALRITHSDVAPTHILYAVNASWVGLCKIQDDVRGYTNGPILLAQTPICDCLGFGICRGIDMEKRLYHILTPVPPEELRTVNCLLVGAIAIPHCVLKCQRGIEGTVPYVTTDYNFKLPGASEKIGAREPEEAHKEKPYRRPKFCRKMK
B5: Rbm14 (protein, UniProt Q96PK6 1-669)
chain: MKIFVGNVDGADTTPEELAALFAPYGTVMSCAVMKQFAFVHMRENAGALRAIEALHGHELRPGRALVVEMSRPRPLNTWKIFVGNVSAACTSQELRSLFERRGRVIECDVVKDYAFVHMEKEADAKAAIAQLNGKEVKGKRINVELSTKGQKKGPGLAVQSGDKTKKPGAGDTAFPGTGGFSATFDYQQAFGNSTGGFDGQARQPTPPFFGRDRSPLRRSPPRASYVAPLTAQPATYRAQPSVSLGAAYRAQPSASLGVGYRTQPMTAQAASYRAQPSVSLGAPYRGQLASPSSQSAAASSLGPYGGAQPSASALSSYGGQAAAASSLNSYGAQGSSLASYGNQPSSYGAQAASSYGVRAAASSYNTQGAASSLGSYGAQAASYGAQSAASSLAYGAQAASYNAQPSASYNAQSAPYAAQQAASYSSQPAAYVAQPATAAAYASQPAAYAAQATTPMAGSYGAQPVVQTQLNSYGAQASMGLSGSYGAQSAAAATGSYGAAAAYGAQPSATLAAPYRTQSSASLAASYAAQQHPQAAASYRGQPGNAYDGAGQPSAAYLSMSQGAVANANSTPPPYERTRLSPPRASYDDPYKKAVAMSKRYGSDRRLAELSDYRRLSESQLSFRRSPTKSSLDYRRLPDAHSDYARYSGSYNDYLRAAQMHSGYQRRM
B6: Nt5dc2 (protein, UniProt Q9H857 1-520)
chain: MRVESGSAQERGILLESLSTLLEKTTASHEGRAPGNRELTDLLPPEVCSLLNPAAIYANNEISLRDVEVYGFDYDYTLAQYADALHPEIFSTARDILIEHYKYPEGIRKYDYNPSFAIRGLHYDIQKSLLMKIDAFHYVQLGTAYRGLQPVPDEEVIELYGGTQHIPLYQMSGFYGKGPSIKQFMDIFSLPEMALLSCVVDYFLGHSLEFDQAHLYKDVTDAIRDVHVKGLMYQWIEQDMEKYILRGDETFAVLSRLVAHGKQLFLITNSPFSFVDKGMRHMVGPDWRQLFDVVIVQADKPSFFTDRRKPFRKLDEKGSLQWDRITRLEKGKIYRQGNLFDFLRLTEWRGPRVLYFGDHLYSDLADLMLRHGWRTGAIIPELEREIRIINTEQYMHSLTWQQALTGLLERMQTYQDAESRQVLAAWMKERQELRCITKALFNAQFGSIFRTFHNPTYFSRRLVRFSDLYMASLSCLLNYRVDFTFYPRRTPLQHEAPLWMDQLCTGCMKTPFLGDMAHIR
B7: Ttf1 (protein, UniProt Q15361 1-905)
chain: MEGESSRFEIHTPVSDKKKKKCSIHKERPQKHSHEIFRDSSLVNEQSQITRRKKRKKDFQHLISSPLKKSRICDETANATSTLKKRKKRRYSALEVDEEAGVTVVLVDKENINNTPKHFRKDVDVVCVDMSIEQKLPRKPKTDKFQVLAKSHAHKSEALHSKVREKKNKKHQRKAASWESQRARDTLPQSESHQEESWLSVGPGGEITELPASAHKNKSKKKKKKSSNREYETLAMPEGSQAGREAGTDMQESQPTVGLDDETPQLLGPTHKKKSKKKKKKKSNHQEFEALAMPEGSQVGSEVGADMQESRPAVGLHGETAGIPAPAYKNKSKKKKKKSNHQEFEAVAMPESLESAYPEGSQVGSEVGTVEGSTALKGFKESNSTKKKSKKRKLTSVKRARVSGDDFSVPSKNSESTLFDSVEGDGAMMEEGVKSRPRQKKTQACLASKHVQEAPRLEPANEEHNVETAEDSEIRYLSADSGDADDSDADLGSAVKQLQEFIPNIKDRATSTIKRMYRDDLERFKEFKAQGVAIKFGKFSVKENKQLEKNVEDFLALTGIESADKLLYTDRYPEEKSVITNLKRRYSFRLHIGRNIARPWKLIYYRAKKMFDVNNYKGRYSEGDTEKLKMYHSLLGNDWKTIGEMVARSSLSVALKFSQISSQRNRGAWSKSETRKLIKAVEEVILKKMSPQELKEVDSKLQENPESCLSIVREKLYKGISWVEVEAKVQTRNWMQCKSKWTEILTKRMTNGRRIYYGMNALRAKVSLIERLYEINVEDTNEIDWEDLASAIGDVPPSYVQTKFSRLKAVYVPFWQKKTFPEIIDYLYETTLPLLKEKLEKMMEKKGTKIQTPAAPKQVFPFRDIFYYEDDSEGEDIEKESEGQAPCMAHACNSSTLGGQGRWII

biological target: Biotin-FOXC1 (mouse) (UniProt Q61572); assay: affinity purification with mass spectrometry; streptavidin-agarose precipitation of biotinylated FOXC1 from nuclear extract of stable HEK293T cells (293T-Biotin-FOXC1); IP350 buffer (350 mM NaCl, 20 mM Tris-HCl pH 7.5, 0.5% NP40, 1 mM EDTA, 10% glycerin); SDS-PAGE, LC-ESI-MS/MS; proteins of the 293T-Biotin control deducted

binding, binds:
B1
B2
B3
B4
B5
B6
B7

No constants are given. Whether binding was seen depends on the method and setting. In cells and extracts the contact can be indirect. Here binding means that the protein was enriched with, or labelled near, the bait; the list need not be complete.
